Source: PMC10774353
These are yes or no findings as the source states them, for the method shown. In cells and extracts the contact can be indirect. Here binding means that the protein was enriched with, or labelled near, the bait; the list need not be complete. Where a sequence is shown, tags or fusion partners need not be part of it.

Key:
[1] = biological target: T1, FLAG-tagged Rsph16 (mouse) (UniProt Q80Y75); assay: affinity purification with mass spectrometry; eight subunits co-expressed in HEK293F; two-step affinity purification by Strep-Tag II-Rsph1 (Strep-Tactin beads, biotin elution) and then Flag-Rsph16 (anti-FLAG beads, 3xFlag peptide elution); 25 mM HEPES pH 7.5, 200 mM KCl, 0.05% NP-40; mass spectrometry of the purified complex
T1 sequence: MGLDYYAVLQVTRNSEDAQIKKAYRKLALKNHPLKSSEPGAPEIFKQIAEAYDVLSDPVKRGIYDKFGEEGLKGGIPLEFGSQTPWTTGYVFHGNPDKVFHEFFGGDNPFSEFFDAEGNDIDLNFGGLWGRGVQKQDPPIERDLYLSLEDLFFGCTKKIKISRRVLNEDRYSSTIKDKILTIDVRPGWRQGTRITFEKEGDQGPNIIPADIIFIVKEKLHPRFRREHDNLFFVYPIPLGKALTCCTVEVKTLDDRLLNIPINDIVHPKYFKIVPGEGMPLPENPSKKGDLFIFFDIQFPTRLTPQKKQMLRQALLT

[2] = biological target: T2, Strep-Tag II-tagged Rsph1 (mouse) (UniProt Q8VIG3); assay: as above
T2 sequence: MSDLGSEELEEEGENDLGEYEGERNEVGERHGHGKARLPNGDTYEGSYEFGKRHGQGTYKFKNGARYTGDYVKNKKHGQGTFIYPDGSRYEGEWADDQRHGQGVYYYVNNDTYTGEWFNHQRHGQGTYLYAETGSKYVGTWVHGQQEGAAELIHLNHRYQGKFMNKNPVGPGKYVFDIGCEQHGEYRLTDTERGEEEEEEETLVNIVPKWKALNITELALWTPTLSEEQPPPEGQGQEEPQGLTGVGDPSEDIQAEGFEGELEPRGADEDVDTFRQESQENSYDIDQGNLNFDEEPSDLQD

B1: Rsph10b (protein, UniProt E9PYQ0 1-876)
chain: MVKEKKKADKKGDKSARSPSSISDNPEASKQDSNASKQEVAPSAVVPVVETPLKQAPKRDSVQMEQSEEETQYEEPILTKLIVESYEGEKVRGLYEGEGFAVFQGGNTYHGMFSEGLMHGQGTYIWADGLKYEGDFVKNIPMNHGVYTWPDGSTYEGEVTNGMRNGFGMFKCGTQPVSYIGHWCHGKRHGKGSIYYNQEGTSWYEGDWVYNIKKGWGIRCYKSGNIYEGQWENNMRHGEGRMRWLTTNEEYTGHWEKGIQNGFGTHTWFLKRIPNSQYPLRNEYIGEFVNGFRHGQGKFYYASGAMYEGEWASNKKQGRGRMTFKNGHVYEGLFSNDHIAQFFETEMDYSQSLDRWSDASQRSRQPRGSSVSAVREPETLRKLDGSESRSVLGTSIELDLTLLLDMYPEESQEEEKKQVEYAVLRNITELRRIYCFYSGLGCDHSLDNTFLMTKLHFWRFLKDCRFHHHNITLADMDRVLSVYNGIPIEEIHSPFRTILLRTFLNYLLQLAYYIHHKEFQNRSPSLFLCFTKLMSENIHPHACQVKGHLFSEQQRTLYSMNYIDKCWEIYTAYCRPNEAPPYELTMKMRYFLWMLKDFRMINKDLTATKFMTVIAEDNPFVYDGTDSNFELELVFLEFFEALLCFSLCCMFDQMTRSYLKVPYDDITTNRYGSTQTILNQSIHRSPSAITSHDSEVHFSSTKSSLDKIGALPDGKIRQSEPKLKKSLSEDKVSKMNFKTQGRGLVFMSPQGEKYEKPKDEQKEKLNIWVNNLYVFFVSVLFSAYKREEMLKEKVKENQLQEAELAQQRQIENEELEARLNILREEEARKQDFELDITVLKEPSEIPASQPLTPSPPKEDLASIQTSKASPGKKKKK
- binding [1]: binds
- binding [2]: binds
